This is an account of results in PMC12248476.

Protein sequences, listed by entry. Tags and fused reporters are not part of them.
UniProt Q16665: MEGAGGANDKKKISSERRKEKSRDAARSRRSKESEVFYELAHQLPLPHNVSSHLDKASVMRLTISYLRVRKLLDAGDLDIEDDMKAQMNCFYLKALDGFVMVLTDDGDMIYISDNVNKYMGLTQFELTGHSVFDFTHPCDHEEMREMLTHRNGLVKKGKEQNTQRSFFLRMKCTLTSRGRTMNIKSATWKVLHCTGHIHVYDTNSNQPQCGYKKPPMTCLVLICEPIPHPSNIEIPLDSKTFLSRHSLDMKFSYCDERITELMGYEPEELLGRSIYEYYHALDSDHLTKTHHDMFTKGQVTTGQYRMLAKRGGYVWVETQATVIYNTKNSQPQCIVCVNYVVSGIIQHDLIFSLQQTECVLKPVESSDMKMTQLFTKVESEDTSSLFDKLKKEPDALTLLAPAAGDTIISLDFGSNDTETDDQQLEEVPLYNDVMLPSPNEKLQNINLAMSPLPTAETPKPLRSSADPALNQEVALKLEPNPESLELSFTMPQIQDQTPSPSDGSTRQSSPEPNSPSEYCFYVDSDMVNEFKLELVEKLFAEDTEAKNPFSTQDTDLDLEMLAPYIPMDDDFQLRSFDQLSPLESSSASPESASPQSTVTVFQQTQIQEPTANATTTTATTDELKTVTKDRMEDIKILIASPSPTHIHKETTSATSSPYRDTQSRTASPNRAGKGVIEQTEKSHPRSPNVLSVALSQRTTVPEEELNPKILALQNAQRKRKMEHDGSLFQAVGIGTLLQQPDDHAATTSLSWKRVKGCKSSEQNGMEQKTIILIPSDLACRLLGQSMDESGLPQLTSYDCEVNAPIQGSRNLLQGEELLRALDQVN
UniProt Q9GZT9: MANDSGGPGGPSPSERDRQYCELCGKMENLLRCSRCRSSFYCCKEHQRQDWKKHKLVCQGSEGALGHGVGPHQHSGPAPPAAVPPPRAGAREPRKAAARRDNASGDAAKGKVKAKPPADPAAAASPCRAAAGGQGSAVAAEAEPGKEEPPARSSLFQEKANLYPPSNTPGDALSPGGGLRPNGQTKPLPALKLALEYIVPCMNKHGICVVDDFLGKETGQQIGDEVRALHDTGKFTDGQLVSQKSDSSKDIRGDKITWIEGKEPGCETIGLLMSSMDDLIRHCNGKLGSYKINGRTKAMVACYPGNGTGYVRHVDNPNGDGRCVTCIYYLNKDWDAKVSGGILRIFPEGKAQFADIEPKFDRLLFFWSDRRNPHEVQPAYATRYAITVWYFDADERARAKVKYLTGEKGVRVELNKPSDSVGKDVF
UniProt Q96KS0: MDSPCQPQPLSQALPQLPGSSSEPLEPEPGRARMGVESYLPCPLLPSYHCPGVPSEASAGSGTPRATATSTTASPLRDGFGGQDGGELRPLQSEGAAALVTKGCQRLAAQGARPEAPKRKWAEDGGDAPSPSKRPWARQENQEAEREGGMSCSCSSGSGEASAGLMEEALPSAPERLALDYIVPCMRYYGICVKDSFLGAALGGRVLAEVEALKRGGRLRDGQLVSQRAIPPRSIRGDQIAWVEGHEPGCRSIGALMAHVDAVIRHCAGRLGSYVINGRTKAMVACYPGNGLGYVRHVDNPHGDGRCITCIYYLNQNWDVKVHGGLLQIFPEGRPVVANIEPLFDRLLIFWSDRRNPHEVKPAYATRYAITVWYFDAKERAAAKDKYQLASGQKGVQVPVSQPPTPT

No constants are given. Whether binding was seen depends on the method and setting. In cells and extracts the contact can be indirect. Some entries that bind do so weakly or less than the wild type. For some of these results: Sequences can lack the tags named with a protein.

Assay [1] deals with T1, endogenous FOXA1 (human (endogenous in LNCaP 1F5)) (UniProt P55317).
T1 sequence: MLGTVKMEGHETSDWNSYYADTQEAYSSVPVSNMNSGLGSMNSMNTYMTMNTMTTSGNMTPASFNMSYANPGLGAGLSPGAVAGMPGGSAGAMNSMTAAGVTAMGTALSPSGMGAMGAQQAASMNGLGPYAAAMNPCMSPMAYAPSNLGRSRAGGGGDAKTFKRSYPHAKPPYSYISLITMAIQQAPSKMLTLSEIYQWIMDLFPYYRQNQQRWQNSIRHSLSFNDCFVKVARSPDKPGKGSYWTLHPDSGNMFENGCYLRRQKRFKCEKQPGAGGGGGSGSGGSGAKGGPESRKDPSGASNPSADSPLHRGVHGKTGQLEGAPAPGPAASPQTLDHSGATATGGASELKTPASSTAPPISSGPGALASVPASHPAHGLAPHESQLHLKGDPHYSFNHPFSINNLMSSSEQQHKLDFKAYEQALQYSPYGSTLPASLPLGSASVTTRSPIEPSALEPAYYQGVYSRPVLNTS
The assay is described as follows: co-IP; endogenous proteins in LNCaP 1F5 cells pre-treated with MG132; IP with anti-HIF1α or anti-FOXA1, western blot; also normoxia against hypoxia (1% O2, 24 h), interaction markedly enhanced under hypoxia. (In general: Immunoblotting shows a protein as a band on a membrane.)

In assay [2] the target is T2, V5-tagged FOXA1 (human) (UniProt P55317).
T2 sequence: T1 sequence
The assay is described as follows: co-IP; HEK293T cells transiently co-transfected with Myc-HIF1α and V5-FOXA1 for 48 h; IP with anti-Myc and blot with anti-V5, and reciprocal IP with anti-V5; IP lysis buffer with 150 mM NaCl, 1% NP-40; Dynabeads Protein G, 4 °C.

The target of assay [3] is Myc-tagged HIF1α (UniProt Q16665). The assay is described as above.
The target in assay [4] is HA-tagged HIF1α (UniProt Q16665). The assay is described as follows: co-IP; HEK293T cells co-expressing HA-HIF1α with V5-FOXA1 full length or truncation mutants (NTD, FH, CTD); precipitating antibody not told in the text (Figure S2C).
In assay [5] the target is endogenous HIF1α (human (endogenous in LNCaP 1F5)) (UniProt Q16665). As to the kind of experiment: co-IP; endogenous proteins in LNCaP 1F5 cells pre-treated with MG132; IP with anti-HIF1α or anti-FOXA1, western blot; also normoxia against hypoxia (1% O2, 24 h), interaction markedly enhanced under hypoxia.
The target in assay [6] is V5-tagged PHD2 (UniProt Q9GZT9). The assay is described as follows: co-IP; HEK293T cells co-transfected with Flag-FOXA1 and V5-PHD1, PHD2 or PHD3; IP with anti-V5, blot with anti-Flag.
The target of assay [7] is V5-tagged PHD1 (UniProt Q96KS0). Described as above.

On to “endogenous HIF1α (from UniProt Q16665 1-826)”, for which the binding entry in assay [1] is “binds”.

On to “Myc-tagged HIF1α (from UniProt Q16665 1-826)”, for which the binding entry in assay [2] was “binds”.

B1: V5-tagged FOXA1 (protein, UniProt P55317 1-472)
chain: T1 sequence
B1: the binding result in assay [3] and in assay [4] was “binds” throughout.

B2: endogenous FOXA1 (protein, UniProt P55317 1-472)
chain: T1 sequence
B2: in assay [5], the binding result is recorded as “binds”.

B3: Flag-tagged FOXA1 (protein, UniProt P55317 1-472)
chain: T1 sequence
Turning to B3, the binding entry is on record as “no binding” in assay [6] and “binds” in assay [7].
